Values quoted from earlier work in patent publication US6391338B1, “System for rendering substantially non-dissoluble bio-affecting agents bio-available” (Biovail Technologies Ltd., priority 1995, dated 2002).

Conditions: water; cited from earlier work

SMILES: CCC(C)n1ncn(-c2ccc(N3CCN(c4ccc(OCC5COC(Cn6cncn6)(c6ccc(Cl)cc6Cl)O5)cc4)CC3)cc2)c1=O (stereo not shown) [itraconazole]
- aqueous solubility: less than 0.0001 g/mL
